Experimental data taken from PubChem BioAssay AID2685 (National Center for Advancing Translational Sciences (NCATS), 2010).
The other results are listed elsewhere or left out. Shown are side measurements of this screen, not its main read-out; they come without a call. The list favours compounds with an active or inconclusive main result. Words in brackets tell the shape of the fitted curve; partial curves, single points and poor fits give uncertain potencies.

Test: qHTS Assay for Lipid Storage Modulators in Drosophila S3 Cells;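 for cell number change: cells counted by Cell Tracker Red CMTPX staining in the red channel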
Conditions: BODIPY lipid droplet fluorescence, 18-24 h; for cell number change: measured here: cell count max response, cells fed with added oleic acid
Method in brief: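 Drosophila S3 cells got compounds at several concentrations plus oleic acid (400 uM solution). Laser-scanning cytometry with 488 nm excitation read lipid droplets at 500-530 nm and cells at 575-640 nm. Percent activity was relative to 20 uM Triacsin C.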

[1] = measured here: cell number channel AC50, cells fed with added oleic acid
[2] = measured here: lipid fluorescence (Fed channel) AC50, cells fed with added oleic acid

| Compound | AC50 [1] | cell number change [%] | AC50 [2] |
| --- | --- | --- | --- |
| Cc1ccccc1NC(=O)CSc1nnc2ccc(-c3ccccn3)nn12 | 0.184 µM [rising, partial curve, poor fit] | – | – |
| COc1ccc(NC(=O)Nc2ccc(OCC(=O)N3CCOCC3)cc2)cc1OC | – | -7.67 | – |
| CCn1c(SCC(=O)Nc2oc(-c3ccccc3)c(-c3ccccc3)c2C#N)nnc1-c1ccncc1 | – | 15.3 | 6.51 µM [falling, partial curve, poor fit] |
| CCOC(=O)N1CCC(N2CC34C=CC(O3)C(C(=O)Nc3ccc(C(C)C)cc3)C4C2=O)CC1 (stereo unspecified) | – | 5.06 | – |
| COc1ccc2cc(C#N)c(SCC(=O)Nc3nonc3C)nc2c1 | – | – | 0.651 µM [rising, partial curve, poor fit] |
| CCOc1ccc(N2CC(C(=O)OCC(=O)c3ccc(OC)cc3)CC2=O)cc1 (stereo unspecified) | – | -2.63 | – |
| CC(=O)Oc1ccc(/C=N/NC(=O)CCSc2ccccc2)cc1 | – | -3.98 | 0.731 µM [falling, single point] |
| CCOC(=O)c1nn(-c2ccc(C)cc2)cc1C(=O)c1ccccc1 | – | 12.7 | – |
| COc1ccccc1NC(=O)c1ccc(C)s1 | – | – | 6.51 µM [falling, single point] |
| CC(=O)Nc1ccc(Nc2cc(C)nc(Nc3ccc(NC(C)=O)cc3)n2)cc1 | – | -8.69 | 10.3 µM [rising, partial curve] |
| CCOC(=O)c1cc(=O)[nH]c2ccccc12 | 3.66 µM [falling, partial curve] | -4.99 | 4.11 µM [falling, partial curve, poor fit] |
| CS(=O)(=O)Nc1ccc(C(=O)NC2CCCCC2)cc1 | – | 18.5 | – |
| COc1ccc(C2Nc3ccccc3C(=O)N2Cc2ccco2)cc1COc1ccccc1F (stereo unspecified) | – | 2.32 | – |
| Cc1ccc(N2C(=O)[C@@H]3[C@H](C2=O)[C@H]2C=CC=NN2[C@@H]3C(=O)Nc2ccc(Cl)cc2)cc1 | – | 15.4 | – |
| Cc1occc1C(=O)N1CCN(Cc2ccccc2)CC1 | – | 3.17 | 0.184 µM [falling, full curve, poor fit] |
| COc1ccc(/C(C)=N/Nc2nc(C)c(C(C)=O)s2)cc1 | – | -23.2 | 29.1 µM [falling, single point] |
| CCc1ccccc1N(CC(=O)O)S(C)(=O)=O | – | -13.8 | 25.9 µM [falling, single point] |
| O=Cc1cn(-c2ccccc2)nc1-c1ccncc1 | – | 13.1 | 0.116 µM [rising, full curve, poor fit] |
| COC(=O)C(NC(=O)c1ccco1)(Nc1ccc(Br)cn1)C(F)(F)F (stereo unspecified) | – | -10.8 | 4.61 µM [falling, single point] |
| Cc1ccc(O)c(Cn2nnc3ccccc32)c1 | 0.291 µM [falling, partial curve, poor fit] | 10.8 | 9.2 µM [rising, partial curve, poor fit] |

| Compound | AC50 [1] | cell number change [%] | AC50 [2] |
| --- | --- | --- | --- |
| Cc1noc(NS(=O)(=O)c2ccc(NC(=O)CSc3nc4ccccc4[nH]3)cc2)c1C | – | -1.41 | – |
| Cn1cnnc1SCC(=O)Nc1ccc(OC(F)F)cc1 | 4.61 µM [rising, partial curve] | – | 6.51 µM [rising, partial curve] |
| O=C1C(Nc2ccccc2)=C(N2CCCCC2)C(=O)c2ccccc21 | – | -13.8 | 23.1 µM [falling, single point] |
| CCCn1nc2cc(C(=O)NC3CCc4ccccc43)ccc2c1OCC (stereo unspecified) | 5.8 µM [rising, single point] | – | 6.51 µM [rising, single point] |
| O=C(/C=C/c1ccccc1[N+](=O)[O-])N1CCOCC1 | – | 1.59 | 6.51 µM [rising, single point] |
| O=C(NNS(=O)(=O)c1ccc(F)cc1)c1cc(Cl)ccc1O | – | 19.3 | 29.1 µM [rising, single point] |
| COC(=O)c1cn(CC(=O)Nc2ccc(F)cc2)c2ccccc12 | 20.6 µM [rising, single point] | 42.9 | 7.31 µM [falling, single point] |
| CN(C)CC(O)COC(c1ccc(Cl)cc1)c1ccc(Cl)cc1 (stereo unspecified) | – | 36.2 | – |
| COc1ccc(OCC(=O)N/N=C2\CCc3ccccc32)cc1 | 2.06 µM [rising, partial curve] | – | 29.1 µM [rising, single point] |
| CC(C)CCn1c(NCCN(C)C)nc2c1c(=O)[nH]c(=O)n2C | – | -0.993 | 0.82 µM [falling, full curve, poor fit] |
| Cc1nc2ncc(Br)cc2[nH]1 | 3.66 µM [rising, full curve, poor fit] | 27.6 | 3.66 µM [rising, full curve, poor fit] |
| CC(=O)c1cccc(Nc2nc(-c3cccc([N+](=O)[O-])c3)cs2)c1 | 1.46 µM [rising, partial curve] | – | 1.46 µM [rising, partial curve] |
| CC(Oc1ccccc1Cl)C(=O)Nc1ccc(S(=O)(=O)Nc2nccs2)cc1 (stereo unspecified) | 9.2 µM [rising, partial curve] | 57.8 | – |
| Cc1cccc(N2CCN(C(=O)CCCn3c(=O)c4cccn4c4cccnc43)CC2)c1C | – | – | 0.58 µM [rising, single point] |
| Cc1ccc(C)c(CN2CCCN(Cc3cc(C)ccc3C)S2(=O)=O)c1 | – | – | 1.64 µM [rising, full curve] |
| O=C(N/N=C/c1ccco1)c1ccc(C(=O)N/N=C/c2ccco2)o1 | – | -14.2 | – |
| CCOC(=O)C(=O)Nc1ccccc1C(N)=O | 1.64 µM [falling, full curve] | -32.6 | 0.116 µM [falling, full curve, poor fit] |
| O=C(CSc1nnc(Cc2ccccc2)n1-c1ccccc1)NNC(=O)Cc1ccccc1 | 16.4 µM [falling, partial curve] | -93.7 | 0.231 µM [falling, partial curve] |
| Cc1cc(NC(=O)CSc2nc3c(C)cccc3cc2C#N)no1 | 25.9 µM [rising, single point] | 146 | – |
| CCN(CC)CCN(C(=O)/C=C/c1cccs1)c1nc2ccc(C)cc2s1 | – | -5.01 | 23.1 µM [falling, single point] |

One compound at a time, from the list above.
Cc1cc(NC(=O)CSc2nc3c(C)cccc3cc2C#N)no1 in the list: AC50 [1]: 25.9 µM [rising, single point]; cell number change [%]: 146
CCCn1nc2cc(C(=O)NC3CCc4ccccc43)ccc2c1OCC (stereo unspecified) in the list: AC50 [1]: 5.8 µM [rising, single point]; AC50 [2]: 6.51 µM [rising, single point]
